Test results published in paper PMC10703867.
Results are given in words; binding and its absence hold for the method and conditions named. Binding seen in cells or lysates may run through a third protein. These calls come from enrichment with a bait or labelling near it, and not all partners need be listed.

Biological target: T1, FOXQ1 (forkhead box transcription factor FOXQ1) (human (endogenous in MDA-MB-231-RR)) (UniProt Q9C009)
T1 sequence: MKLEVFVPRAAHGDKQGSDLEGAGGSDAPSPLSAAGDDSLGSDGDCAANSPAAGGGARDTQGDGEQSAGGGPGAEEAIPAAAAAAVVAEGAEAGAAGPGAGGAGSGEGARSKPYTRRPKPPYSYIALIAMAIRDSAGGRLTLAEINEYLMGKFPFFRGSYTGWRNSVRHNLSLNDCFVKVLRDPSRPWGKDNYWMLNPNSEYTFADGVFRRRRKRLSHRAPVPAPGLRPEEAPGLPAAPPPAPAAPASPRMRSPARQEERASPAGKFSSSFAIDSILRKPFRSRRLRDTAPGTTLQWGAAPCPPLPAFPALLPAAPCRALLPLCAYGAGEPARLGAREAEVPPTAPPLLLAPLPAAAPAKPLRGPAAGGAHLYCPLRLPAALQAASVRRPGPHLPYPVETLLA
Assay: affinity purification with mass spectrometry; MDA-MB-231-RR cells lysed in RIPA buffer; anti-FOXQ1 antibody or control IgG overnight at 4 °C, protein A/G agarose beads; SDS-PAGE, silver stain, in-gel trypsin digestion, LC-MS/MS

## RAPH1 (from UniProt Q70E73-9)
  binding: binds
